Values quoted from earlier work, collected in patent US20150209404A1, “CELLULAR BLOOD MARKERS FOR EARLY DIAGNOSIS OF ALS AND FOR ALS PROGRESSION” (YEDA RESEARCH AND DEVELOPMENT CO. LTD., priority 2010, published 2015).
For at least one compound, name, drawing or mass did not settle the structure.

Conditions: ALS patients; Copaxone given daily; both drugs effective in treating MS

CN(C)c1ccc(O)c2c1C[C@H]1C[C@H]3[C@H](N(C)C)C(O)=C(C(N)=O)C(=O)[C@@]3(O)C(O)=C1C2=O [minocycline]
outcome of treatment in ALS: failed and were even detrimental
